The list shows a part of the results. Residues, ends and D or L forms follow the SMILES beside them. *: point of attachment. Cbz = O=C(OCc1ccccc1)*
What was measured:
Assay in all cases: log2 fold change, soluble protein after heating vs DMSO (PISA); higher = thermal stabilisation; K562 cells, 10 uM, 30 min; active = over 0.2 and 3.5 SD of the protein, either way, in both replicates (recomputed)
IRAK-1-4 Inhibitor I = compound: C1COCCN1CCN2C3=CC=CC=C3N=C2NC(=O)C4=CC(=CC=C4)[N+](=O)[O-] [IRAK-1-4 Inhibitor I]
How it was run: (§1)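 K562 cells at 2×10^6 cells/mL were treated for 30 min with 10 μM compound, and aliquots were heated for 3 min over 48°C-58°C before pooling. Extraction used PBS with 0.5% NP-40 at 4°C, and soluble protein was the supernatant after 21,000xg for 90 min, measured by TMTpro 16plex LC-MS/MS with channel sums equalised. Thermal stability values, relative to control samples and from duplicates, are log2 fold changes.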

The chains behind the UniProt entries cited, without tags or fusion partners. Where a name states a change or a piece, a line headed by the entry shows the natural chain unless it says otherwise.
UniProt Q9BSR8: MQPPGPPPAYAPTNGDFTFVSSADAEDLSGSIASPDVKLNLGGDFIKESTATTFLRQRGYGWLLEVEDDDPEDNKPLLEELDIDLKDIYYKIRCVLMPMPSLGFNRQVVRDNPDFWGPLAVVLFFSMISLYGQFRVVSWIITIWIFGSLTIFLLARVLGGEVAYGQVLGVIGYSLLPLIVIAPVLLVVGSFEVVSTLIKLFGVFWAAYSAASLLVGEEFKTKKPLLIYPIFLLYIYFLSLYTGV
UniProt Q8NBI6: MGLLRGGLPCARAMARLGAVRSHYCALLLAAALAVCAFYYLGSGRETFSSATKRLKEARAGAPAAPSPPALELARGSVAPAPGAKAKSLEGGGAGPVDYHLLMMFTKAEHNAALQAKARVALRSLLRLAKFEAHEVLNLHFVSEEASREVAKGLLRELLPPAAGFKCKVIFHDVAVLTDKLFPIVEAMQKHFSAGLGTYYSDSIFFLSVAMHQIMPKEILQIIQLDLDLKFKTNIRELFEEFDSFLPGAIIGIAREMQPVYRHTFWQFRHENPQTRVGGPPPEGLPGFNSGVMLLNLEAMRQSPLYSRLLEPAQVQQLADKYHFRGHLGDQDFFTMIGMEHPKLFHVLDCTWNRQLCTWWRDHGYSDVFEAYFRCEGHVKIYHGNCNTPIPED
UniProt P67809, whole entry, looked up: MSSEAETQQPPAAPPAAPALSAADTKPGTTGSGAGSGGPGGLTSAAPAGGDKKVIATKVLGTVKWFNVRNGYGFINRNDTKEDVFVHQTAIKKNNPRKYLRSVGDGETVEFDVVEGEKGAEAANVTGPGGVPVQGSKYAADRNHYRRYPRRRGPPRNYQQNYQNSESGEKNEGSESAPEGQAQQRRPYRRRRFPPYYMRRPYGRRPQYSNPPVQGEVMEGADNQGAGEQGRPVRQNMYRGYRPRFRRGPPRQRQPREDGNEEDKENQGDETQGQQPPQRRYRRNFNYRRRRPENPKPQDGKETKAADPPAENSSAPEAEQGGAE
UniProt O75844: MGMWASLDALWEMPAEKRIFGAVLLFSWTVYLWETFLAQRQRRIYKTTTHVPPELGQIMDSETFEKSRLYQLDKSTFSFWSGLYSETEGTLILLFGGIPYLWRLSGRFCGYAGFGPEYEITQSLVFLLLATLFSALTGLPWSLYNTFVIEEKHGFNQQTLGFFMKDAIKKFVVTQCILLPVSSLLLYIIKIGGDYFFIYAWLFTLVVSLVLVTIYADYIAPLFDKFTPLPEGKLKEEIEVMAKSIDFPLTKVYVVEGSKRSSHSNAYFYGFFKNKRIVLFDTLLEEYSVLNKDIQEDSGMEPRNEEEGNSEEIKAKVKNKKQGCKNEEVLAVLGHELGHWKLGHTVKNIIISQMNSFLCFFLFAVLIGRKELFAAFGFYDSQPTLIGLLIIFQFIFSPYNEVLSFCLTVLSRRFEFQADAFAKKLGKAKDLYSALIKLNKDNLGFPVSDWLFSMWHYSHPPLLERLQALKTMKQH
UniProt Q86U90: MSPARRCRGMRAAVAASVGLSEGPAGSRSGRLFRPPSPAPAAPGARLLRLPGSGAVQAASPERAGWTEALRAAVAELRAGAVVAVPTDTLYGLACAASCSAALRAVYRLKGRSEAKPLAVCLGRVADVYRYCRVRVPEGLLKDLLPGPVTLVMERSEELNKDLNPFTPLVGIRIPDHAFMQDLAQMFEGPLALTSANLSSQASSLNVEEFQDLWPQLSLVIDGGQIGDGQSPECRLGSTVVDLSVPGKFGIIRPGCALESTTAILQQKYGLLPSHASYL
UniProt Q969M3: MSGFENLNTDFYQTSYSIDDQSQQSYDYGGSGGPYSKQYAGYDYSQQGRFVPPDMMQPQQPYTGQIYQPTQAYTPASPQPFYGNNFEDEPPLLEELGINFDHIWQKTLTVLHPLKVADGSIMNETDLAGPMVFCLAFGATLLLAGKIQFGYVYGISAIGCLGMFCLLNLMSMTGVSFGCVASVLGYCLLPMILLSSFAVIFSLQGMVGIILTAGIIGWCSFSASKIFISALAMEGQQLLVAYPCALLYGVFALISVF
UniProt P25490, whole entry, looked up: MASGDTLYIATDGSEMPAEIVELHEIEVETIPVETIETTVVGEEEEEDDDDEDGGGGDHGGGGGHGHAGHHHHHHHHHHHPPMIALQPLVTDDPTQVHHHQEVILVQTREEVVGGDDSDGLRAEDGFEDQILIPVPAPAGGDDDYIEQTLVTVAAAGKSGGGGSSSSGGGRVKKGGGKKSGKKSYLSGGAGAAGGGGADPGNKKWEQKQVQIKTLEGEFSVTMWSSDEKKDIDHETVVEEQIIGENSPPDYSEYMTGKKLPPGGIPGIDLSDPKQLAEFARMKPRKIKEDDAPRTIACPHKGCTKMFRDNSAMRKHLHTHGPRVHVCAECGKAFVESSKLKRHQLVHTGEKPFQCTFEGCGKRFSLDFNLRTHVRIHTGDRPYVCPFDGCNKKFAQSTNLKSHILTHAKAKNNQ
UniProt Q96GR4: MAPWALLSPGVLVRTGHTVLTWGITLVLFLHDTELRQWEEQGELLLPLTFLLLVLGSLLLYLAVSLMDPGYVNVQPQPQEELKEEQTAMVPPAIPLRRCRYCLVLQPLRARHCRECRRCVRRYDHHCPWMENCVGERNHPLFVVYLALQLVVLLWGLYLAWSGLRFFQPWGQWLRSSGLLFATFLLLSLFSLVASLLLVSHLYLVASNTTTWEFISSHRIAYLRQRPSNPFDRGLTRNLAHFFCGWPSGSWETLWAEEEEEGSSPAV
UniProt Q8N5P1: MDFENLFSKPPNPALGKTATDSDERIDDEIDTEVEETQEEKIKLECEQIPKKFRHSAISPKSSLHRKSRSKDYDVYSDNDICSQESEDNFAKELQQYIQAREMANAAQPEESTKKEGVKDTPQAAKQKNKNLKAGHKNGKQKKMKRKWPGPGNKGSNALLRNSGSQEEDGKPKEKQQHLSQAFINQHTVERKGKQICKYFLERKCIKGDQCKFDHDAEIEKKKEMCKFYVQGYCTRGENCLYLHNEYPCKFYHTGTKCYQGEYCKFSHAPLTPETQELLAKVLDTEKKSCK
UniProt Q9ULJ3: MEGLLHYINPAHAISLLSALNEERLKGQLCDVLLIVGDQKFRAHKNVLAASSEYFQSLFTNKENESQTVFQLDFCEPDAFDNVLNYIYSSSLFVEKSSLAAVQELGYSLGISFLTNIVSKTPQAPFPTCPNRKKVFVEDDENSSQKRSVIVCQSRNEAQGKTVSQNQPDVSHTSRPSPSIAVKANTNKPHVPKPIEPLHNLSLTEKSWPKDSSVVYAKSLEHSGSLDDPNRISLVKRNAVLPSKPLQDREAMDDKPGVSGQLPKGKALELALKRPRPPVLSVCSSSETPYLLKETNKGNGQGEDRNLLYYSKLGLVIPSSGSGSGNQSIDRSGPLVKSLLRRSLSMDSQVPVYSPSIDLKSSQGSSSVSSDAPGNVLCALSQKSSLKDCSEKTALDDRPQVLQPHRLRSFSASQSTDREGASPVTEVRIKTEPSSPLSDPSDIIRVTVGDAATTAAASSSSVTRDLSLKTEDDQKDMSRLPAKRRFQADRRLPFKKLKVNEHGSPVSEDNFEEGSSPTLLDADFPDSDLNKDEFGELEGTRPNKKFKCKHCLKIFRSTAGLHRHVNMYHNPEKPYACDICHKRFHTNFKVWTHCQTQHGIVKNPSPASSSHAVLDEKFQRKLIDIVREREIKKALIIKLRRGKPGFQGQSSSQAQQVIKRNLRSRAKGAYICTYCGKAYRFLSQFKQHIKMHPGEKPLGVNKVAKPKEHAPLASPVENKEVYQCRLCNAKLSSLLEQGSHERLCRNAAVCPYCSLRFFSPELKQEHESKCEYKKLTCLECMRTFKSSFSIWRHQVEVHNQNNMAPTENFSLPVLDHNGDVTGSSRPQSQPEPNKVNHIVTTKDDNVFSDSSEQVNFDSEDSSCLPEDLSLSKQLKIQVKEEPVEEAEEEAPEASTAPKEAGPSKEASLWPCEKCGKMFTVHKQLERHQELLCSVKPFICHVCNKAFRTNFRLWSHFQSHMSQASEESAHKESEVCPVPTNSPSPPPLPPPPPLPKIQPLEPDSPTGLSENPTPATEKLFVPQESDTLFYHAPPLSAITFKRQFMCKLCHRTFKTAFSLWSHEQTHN
UniProt O60315: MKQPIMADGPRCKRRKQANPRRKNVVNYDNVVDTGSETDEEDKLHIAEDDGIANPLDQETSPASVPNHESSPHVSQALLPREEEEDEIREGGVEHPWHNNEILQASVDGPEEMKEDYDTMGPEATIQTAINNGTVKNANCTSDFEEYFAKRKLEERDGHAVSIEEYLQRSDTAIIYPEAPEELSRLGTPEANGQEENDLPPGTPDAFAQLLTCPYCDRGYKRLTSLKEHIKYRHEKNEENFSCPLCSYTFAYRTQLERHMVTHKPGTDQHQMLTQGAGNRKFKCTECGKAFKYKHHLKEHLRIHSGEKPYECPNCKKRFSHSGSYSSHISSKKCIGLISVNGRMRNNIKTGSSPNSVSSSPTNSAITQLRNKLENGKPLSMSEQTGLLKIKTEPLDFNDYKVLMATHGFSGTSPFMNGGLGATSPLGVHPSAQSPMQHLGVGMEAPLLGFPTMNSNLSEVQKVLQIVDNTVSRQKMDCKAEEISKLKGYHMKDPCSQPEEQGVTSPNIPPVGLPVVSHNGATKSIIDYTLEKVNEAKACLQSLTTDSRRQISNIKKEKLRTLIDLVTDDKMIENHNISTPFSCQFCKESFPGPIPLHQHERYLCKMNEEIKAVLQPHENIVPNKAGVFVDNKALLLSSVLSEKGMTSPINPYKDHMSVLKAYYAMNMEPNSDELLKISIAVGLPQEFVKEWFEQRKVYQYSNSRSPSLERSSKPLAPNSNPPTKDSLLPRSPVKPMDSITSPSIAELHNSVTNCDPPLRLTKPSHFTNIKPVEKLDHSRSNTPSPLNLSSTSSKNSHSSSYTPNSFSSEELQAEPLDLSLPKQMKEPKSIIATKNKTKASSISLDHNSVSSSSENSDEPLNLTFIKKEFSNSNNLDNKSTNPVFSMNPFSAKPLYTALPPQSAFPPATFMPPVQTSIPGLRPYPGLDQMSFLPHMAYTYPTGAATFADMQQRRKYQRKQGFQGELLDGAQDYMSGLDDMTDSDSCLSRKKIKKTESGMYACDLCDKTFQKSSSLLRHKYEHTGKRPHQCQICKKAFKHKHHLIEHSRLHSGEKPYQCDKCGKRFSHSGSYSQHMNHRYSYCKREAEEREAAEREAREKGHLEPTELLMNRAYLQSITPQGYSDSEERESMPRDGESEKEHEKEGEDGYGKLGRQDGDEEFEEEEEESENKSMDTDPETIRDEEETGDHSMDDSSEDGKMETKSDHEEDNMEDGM
UniProt Q96JP5: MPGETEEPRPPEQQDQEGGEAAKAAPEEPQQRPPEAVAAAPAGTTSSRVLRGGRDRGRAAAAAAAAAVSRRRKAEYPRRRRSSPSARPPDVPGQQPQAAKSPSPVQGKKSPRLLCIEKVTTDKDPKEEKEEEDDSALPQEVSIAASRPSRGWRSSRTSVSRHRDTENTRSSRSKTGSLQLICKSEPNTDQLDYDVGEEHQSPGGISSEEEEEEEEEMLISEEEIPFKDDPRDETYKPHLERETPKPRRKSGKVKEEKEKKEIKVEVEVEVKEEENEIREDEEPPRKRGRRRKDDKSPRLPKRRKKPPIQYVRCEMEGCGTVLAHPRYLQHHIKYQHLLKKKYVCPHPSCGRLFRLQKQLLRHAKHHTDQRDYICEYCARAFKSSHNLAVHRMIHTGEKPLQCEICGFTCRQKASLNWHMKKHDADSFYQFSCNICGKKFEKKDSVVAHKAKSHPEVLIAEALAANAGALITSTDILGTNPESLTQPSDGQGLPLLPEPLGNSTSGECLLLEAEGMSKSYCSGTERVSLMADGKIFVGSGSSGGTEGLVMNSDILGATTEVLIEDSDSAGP
UniProt P52739: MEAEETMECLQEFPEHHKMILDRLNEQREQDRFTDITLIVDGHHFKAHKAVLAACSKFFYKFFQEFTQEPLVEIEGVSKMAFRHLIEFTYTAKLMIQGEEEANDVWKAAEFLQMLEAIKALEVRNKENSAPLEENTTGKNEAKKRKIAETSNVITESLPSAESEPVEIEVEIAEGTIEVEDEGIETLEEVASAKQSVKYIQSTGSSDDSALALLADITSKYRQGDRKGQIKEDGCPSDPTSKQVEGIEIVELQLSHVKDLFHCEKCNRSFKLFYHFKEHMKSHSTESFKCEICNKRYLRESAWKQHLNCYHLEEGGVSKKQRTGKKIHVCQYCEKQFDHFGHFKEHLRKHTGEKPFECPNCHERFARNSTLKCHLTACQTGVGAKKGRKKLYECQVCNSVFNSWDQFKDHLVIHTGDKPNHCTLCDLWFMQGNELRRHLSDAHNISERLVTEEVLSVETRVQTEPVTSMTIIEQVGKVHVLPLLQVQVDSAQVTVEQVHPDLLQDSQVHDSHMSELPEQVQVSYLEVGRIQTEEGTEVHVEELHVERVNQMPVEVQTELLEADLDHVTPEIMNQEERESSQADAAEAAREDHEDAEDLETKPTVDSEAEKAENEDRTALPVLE

ibrutinib = compound: C=CC(=O)N1CCC[C@@H](n2nc(-c3ccc(Oc4ccccc4)cc3)c3c(N)ncnc32)C1 [ibrutinib]
How it was run: as §1

[1] = compound: CC(=O)c1cnc2ccc(-c3cc(Cl)c(O)c(Cl)c3)nc2c1N[C@H]1CC[C@H](CN(C)C)CC1
How it was run: as §1

ralimetinib = compound: CC(C)(C)Cn1c(N)nc2ccc(-c3[nH]c(C(C)(C)C)nc3-c3ccc(F)cc3)nc21 [ralimetinib]
How it was run: as §1

[2] = compound: CC(C)(O)CC(=O)NCCn1ccc2ncnc(Nc3ccc(Oc4cccc(C(F)(F)F)c4)c(Cl)c3)c21
How it was run: as §1

[3] = compound: CC(C)C1=C2N=C(C=C(N2N=C1)NCC3=CC=CC=C3)NCCCCCCN
How it was run: as §1

[4] = compound: CC(C)C[C@@H](C=O)NC(=O)[C@H](CC(C)C)NC(=O)[C@H](CC(C)C)NC(=O)OCc1ccccc1
How it was run: as §1

pinometostat = compound: CC(C)N(C[C@H]1O[C@@H](n2cnc3c(N)ncnc32)[C@H](O)[C@@H]1O)[C@H]1C[C@@H](CCc2nc3cc(C(C)(C)C)ccc3[nH]2)C1 [pinometostat]
How it was run: as §1

[5] = compound: CC1=C(C2=C(C=C1)C(=O)C3=CC=CC=C3N2CCCN)C
How it was run: as §1

[6] = compound: CC1=C(C(CC(=O)N1)C2=CC=C(C=C2)C(F)(F)F)C(=O)NC3=C(C=C4C(=C3)C=NN4)F
How it was run: as §1

Target | log2 fold change (IRAK-1-4 Inhibitor I) | log2 fold change (ibrutinib) | log2 fold change [1] | log2 fold change (ralimetinib) | log2 fold change [2] | log2 fold change [3] | log2 fold change [4] | log2 fold change (pinometostat) | log2 fold change [5] | log2 fold change [6]
YWHAB (UniProt P31946) | inactive: 0.127 | inactive: -0.013 | inactive: -0.019 | inactive: -0.063 | inactive: -0.013 | inactive: 0.014 | inactive: -0.003 | inactive: -0.031 | inactive: -0.072 | 
ZBTB43 (UniProt O43298) | inactive: -0.043 | inactive: 0.064 | inactive: 0.008 | inactive: 0.012 | inactive: 0.175 | inactive: 0.138 | inactive: 0.05 | inactive: -0.05 | active: -1.06 | 
YIF1B (UniProt Q5BJH7) | inactive: 0.015 | inactive: 0.056 | inactive: -0.03 | inactive: -0.018 | inactive: -0.071 | inactive: -0.087 | inactive: 0.069 | inactive: -0.048 | inactive: 0.078 | inactive: 0.032
YIPF4 (UniProt Q9BSR8) | inactive: 0.093 | inactive: 0.009 | inactive: -0.197 | inactive: -0.099 | inactive: -0.012 | inactive: -0.032 | inactive: -0.016 | inactive: -0.031 | inactive: 0.215 | 
ZCCHC3 (UniProt Q9NUD5) | inactive: -0.145 | inactive: 0.096 | inactive: 0.169 | inactive: 0.128 | inactive: 0.069 | inactive: 0.011 | inactive: 0.048 | inactive: 0.166 | inactive: -0.37 | inactive: -0.053
XXYLT1 (UniProt Q8NBI6) | inactive: 0 | inactive: -0.039 | inactive: -0.006 | inactive: -0.007 | inactive: 0.003 | inactive: -0.006 | inactive: -0.014 | inactive: -0.004 | inactive: 0.019 | inactive: 0.01
YBX1 (UniProt P67809) | inactive: -0.117 | inactive: 0.103 | inactive: 0.155 | inactive: 0.082 | inactive: 0.162 | inactive: 0.038 | inactive: 0.083 | inactive: 0.053 | active: -0.637 | 
YWHAQ (UniProt P27348) | inactive: 0.084 | inactive: 0.002 | inactive: 0.118 | inactive: 0.237 | inactive: -0.084 | inactive: -0.026 | inactive: -0.184 | inactive: -0.067 | inactive: -0.055 | 
ZMPSTE24 (UniProt O75844) | inactive: 0.03 | inactive: -0.025 | inactive: 0.02 | inactive: -0.092 | inactive: -0.023 | inactive: 0.032 | inactive: -0.006 | inactive: -0.017 | inactive: 0.037 | inactive: -0.013
YRDC (UniProt Q86U90) | inactive: 0.037 | inactive: 0.01 | inactive: -0.039 | inactive: 0.047 | inactive: 0.051 | inactive: -0.033 | inactive: -0.007 | inactive: -0.02 | inactive: 0.143 | inactive: -0.019
YIPF5 isoform 3 (UniProt Q969M3) | inactive: -0.035 | inactive: -0.005 | inactive: 0.023 | inactive: -0.292 | inactive: -0.094 | inactive: 0.008 | inactive: -0.012 | inactive: 0.016 | inactive: -0.006 | 
XPO6 (UniProt Q96QU8) | inactive: -0.131 | inactive: 0.246 | inactive: -0.038 | inactive: 0.083 | active: 0.434 | inactive: -0.189 | inactive: -0.023 | active: 0.646 | inactive: 0.067 | 
YY1 (UniProt P25490) | inactive: -0.026 | inactive: -0.032 | inactive: -0.084 | inactive: 0.002 | inactive: -0.026 | active: -0.24 | inactive: 0.091 | inactive: 0.02 | active: -0.433 | 
YOD1 (UniProt Q5VVQ6) | inactive: 0.019 | inactive: -0.016 | inactive: -0.04 | inactive: -0.001 | inactive: -0.113 | inactive: -0.153 | inactive: 0.045 | inactive: -0.021 | inactive: 0.063 | 
ZNF239 (UniProt Q16600) | inactive: 0.154 | inactive: 0.165 | inactive: -0.439 | inactive: -0.07 | inactive: 0.086 | inactive: 0.149 | inactive: 0.045 | inactive: -0.008 | inactive: 0.011 | 
ZFAND6 (UniProt Q6FIF0) | inactive: 0.032 | inactive: 0.006 | inactive: 0.041 | inactive: -0.048 | inactive: 0.015 | inactive: 0.075 | inactive: 0.119 | inactive: -0.048 | inactive: 0 | 
ZFAND5 (UniProt O76080) | inactive: 0.057 | inactive: 0.03 | inactive: -0.025 | inactive: 0.024 | inactive: -0.019 | inactive: 0.072 | inactive: 0.007 | inactive: -0.047 | inactive: -0.095 | 
ZDHHC12 isoform 3 (UniProt Q96GR4) | inactive: -0.075 |  | inactive: -0.093 |  |  |  |  | inactive: 0.134 | inactive: 0.009 | 
XPOT (UniProt O43592) | inactive: -0.035 | inactive: -0.061 | inactive: 0.064 | inactive: -0.079 | inactive: -0.146 | active: -0.345 | inactive: 0.053 | inactive: 0.03 | inactive: 0.033 | 
ZMYND8 isoform 19 (UniProt Q9ULU4) | inactive: 0.037 | inactive: -0.043 |  |  | inactive: -0.028 | inactive: -0.288 |  | inactive: 0.038 |  | 
ZC3H8 (UniProt Q8N5P1) | inactive: -0.098 | inactive: 0.03 | inactive: 0.006 | inactive: 0.047 | inactive: 0.064 | inactive: 0.177 | inactive: 0.045 | inactive: 0.017 | inactive: -0.277 | 
ZBTB21 (UniProt Q9ULJ3) | inactive: 0.006 | inactive: -0.174 | active: -0.42 | inactive: 0.121 | inactive: 0.101 | inactive: -0.027 | inactive: -0.013 | inactive: 0.209 | inactive: -0.183 | 
ZNF217 (UniProt O75362) | inactive: 0.052 | inactive: -0.028 | inactive: -0.125 | inactive: -0.012 | inactive: -0.122 | inactive: -0.034 | inactive: 0.024 | inactive: 0.002 | inactive: -0.142 | 
ZEB2 (UniProt O60315) | inactive: 0.02 | inactive: 0.029 |  | inactive: -0.075 | inactive: 0.034 | inactive: -0.187 | inactive: 0.131 | inactive: 0.06 | active: -0.476 | 
ZFP91 (UniProt Q96JP5) | inactive: -0.134 | inactive: 0 | inactive: 0.018 | inactive: -0.033 | inactive: 0.065 | inactive: 0.007 | inactive: 0 | inactive: 0.136 | active: -0.432 | 
ZNF131 (UniProt P52739) | inactive: -0.07 | inactive: 0.056 |  | inactive: -0.141 | inactive: 0.112 |  | inactive: 0.079 | inactive: 0.127 |  | 

Rewritten tab-delimited: part of the list above
Target	log2 fold change (IRAK-1-4 Inhibitor I)	log2 fold change (ibrutinib)	log2 fold change [1]	log2 fold change (ralimetinib)	log2 fold change [2]	log2 fold change [3]	log2 fold change [4]	log2 fold change (pinometostat)	log2 fold change [5]	log2 fold change [6]
ZMPSTE24 (UniProt O75844)	inactive: 0.03	inactive: -0.025	inactive: 0.02	inactive: -0.092	inactive: -0.023	inactive: 0.032	inactive: -0.006	inactive: -0.017	inactive: 0.037	inactive: -0.013
ZFP91 (UniProt Q96JP5)	inactive: -0.134	inactive: 0	inactive: 0.018	inactive: -0.033	inactive: 0.065	inactive: 0.007	inactive: 0	inactive: 0.136	active: -0.432	
